Test [1] has as its target Bfr2 (MSR1_27040) of Magnetospirillum gryphiswaldense MSR-1, bacterial two-hybrid fusions (Magnetospirillum gryphiswaldense MSR-1). The experiment in a line: two-hybrid; bacterial two-hybrid (T18 and T25 domains of B. pertussis CyaA) in E. coli BTH101; cell suspensions spotted on LB-X-Gal-IPTG, 30°C, 20 h; blue colonies; empty pUT18c and pKNT25 as controls; in the rows the T25 fusion is the binder and the T18 fusion the target.

Sequences of proteins named here, by UniProt entry; tags and fusion partners are left off.
UniProt A0ACM8UJ62: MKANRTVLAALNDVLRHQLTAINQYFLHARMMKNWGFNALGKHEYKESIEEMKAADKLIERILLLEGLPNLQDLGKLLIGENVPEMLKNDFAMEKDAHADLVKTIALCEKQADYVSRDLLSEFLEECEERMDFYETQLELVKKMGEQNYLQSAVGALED

In test [2] the target is Bfr2 of MSR-1 expressed alone from pET-51b-Bfr2 (Magnetospirillum gryphiswaldense MSR-1). The experiment in a line: negative-stain transmission electron microscopy; purified protein adsorbed on carbon-coated copper grids, 2% uranyl acetate; diameters of at least 100 particles, compared with horse spleen ferritin; both purified.
The target is the same in test [3]. The experiment in a line: native gel or EMSA; BN-PAGE of purified proteins on polyacrylamide gradient gels, run at 4°C, Coomassie stained; Bfr2 and Bfr12 ~22 μM, Bfr1 ~30 μM in 50 mM Tris-HCl, 50 mM NaCl, pH 8.0, or Bfr12 dialysed against 50 mM imidazole-HCl, 50 mM NaCl, pH 7; for Bfr12 also a second dimension of SDS-PAGE (2D-BN/SDS-PAGE); both purified. (A gel shift assay detects complexes by their altered migration in electrophoresis.)

No constants are given. Whether binding was seen depends on the method and setting. Some results given as binding are weak or reduced against the parent protein; the word gives no strength.

“Bfr2 (MSR1_27040) of Magnetospirillum gryphiswaldense MSR-1, bacterial two-hybrid fusions (from UniProt A0ACM8UJ62 1-159)”: the binding entry in test [1] is reported as “binds”.
In the case of “Bfr2 of MSR-1 expressed alone from pET-51b-Bfr2 (from UniProt A0ACM8UJ62 1-159)”, the binding entry in test [2] and in test [3] was “binds” in each case.

The record behind these values is article PMC6529640, “Bacterioferritin of Magnetospirillum gryphiswaldense Is a Heterotetraeicosameric Complex Composed of Functionally Distinct Subunits but Is Not Involved in Magnetite Biomineralization” (mBio, 2019).
